Measured values published in PMC5104429 (2016).
Results are given in words; binding and its absence hold for the method and conditions named. For some of these results: Binding seen in cells or lysates may run through a third protein. Some binding calls cover weakened binding; strength is not graded here.

Amino acid sequences for entries named in this document (tags omitted). A change or cut given only in a name is not applied to a line headed by its entry.
UniProt Q5S007: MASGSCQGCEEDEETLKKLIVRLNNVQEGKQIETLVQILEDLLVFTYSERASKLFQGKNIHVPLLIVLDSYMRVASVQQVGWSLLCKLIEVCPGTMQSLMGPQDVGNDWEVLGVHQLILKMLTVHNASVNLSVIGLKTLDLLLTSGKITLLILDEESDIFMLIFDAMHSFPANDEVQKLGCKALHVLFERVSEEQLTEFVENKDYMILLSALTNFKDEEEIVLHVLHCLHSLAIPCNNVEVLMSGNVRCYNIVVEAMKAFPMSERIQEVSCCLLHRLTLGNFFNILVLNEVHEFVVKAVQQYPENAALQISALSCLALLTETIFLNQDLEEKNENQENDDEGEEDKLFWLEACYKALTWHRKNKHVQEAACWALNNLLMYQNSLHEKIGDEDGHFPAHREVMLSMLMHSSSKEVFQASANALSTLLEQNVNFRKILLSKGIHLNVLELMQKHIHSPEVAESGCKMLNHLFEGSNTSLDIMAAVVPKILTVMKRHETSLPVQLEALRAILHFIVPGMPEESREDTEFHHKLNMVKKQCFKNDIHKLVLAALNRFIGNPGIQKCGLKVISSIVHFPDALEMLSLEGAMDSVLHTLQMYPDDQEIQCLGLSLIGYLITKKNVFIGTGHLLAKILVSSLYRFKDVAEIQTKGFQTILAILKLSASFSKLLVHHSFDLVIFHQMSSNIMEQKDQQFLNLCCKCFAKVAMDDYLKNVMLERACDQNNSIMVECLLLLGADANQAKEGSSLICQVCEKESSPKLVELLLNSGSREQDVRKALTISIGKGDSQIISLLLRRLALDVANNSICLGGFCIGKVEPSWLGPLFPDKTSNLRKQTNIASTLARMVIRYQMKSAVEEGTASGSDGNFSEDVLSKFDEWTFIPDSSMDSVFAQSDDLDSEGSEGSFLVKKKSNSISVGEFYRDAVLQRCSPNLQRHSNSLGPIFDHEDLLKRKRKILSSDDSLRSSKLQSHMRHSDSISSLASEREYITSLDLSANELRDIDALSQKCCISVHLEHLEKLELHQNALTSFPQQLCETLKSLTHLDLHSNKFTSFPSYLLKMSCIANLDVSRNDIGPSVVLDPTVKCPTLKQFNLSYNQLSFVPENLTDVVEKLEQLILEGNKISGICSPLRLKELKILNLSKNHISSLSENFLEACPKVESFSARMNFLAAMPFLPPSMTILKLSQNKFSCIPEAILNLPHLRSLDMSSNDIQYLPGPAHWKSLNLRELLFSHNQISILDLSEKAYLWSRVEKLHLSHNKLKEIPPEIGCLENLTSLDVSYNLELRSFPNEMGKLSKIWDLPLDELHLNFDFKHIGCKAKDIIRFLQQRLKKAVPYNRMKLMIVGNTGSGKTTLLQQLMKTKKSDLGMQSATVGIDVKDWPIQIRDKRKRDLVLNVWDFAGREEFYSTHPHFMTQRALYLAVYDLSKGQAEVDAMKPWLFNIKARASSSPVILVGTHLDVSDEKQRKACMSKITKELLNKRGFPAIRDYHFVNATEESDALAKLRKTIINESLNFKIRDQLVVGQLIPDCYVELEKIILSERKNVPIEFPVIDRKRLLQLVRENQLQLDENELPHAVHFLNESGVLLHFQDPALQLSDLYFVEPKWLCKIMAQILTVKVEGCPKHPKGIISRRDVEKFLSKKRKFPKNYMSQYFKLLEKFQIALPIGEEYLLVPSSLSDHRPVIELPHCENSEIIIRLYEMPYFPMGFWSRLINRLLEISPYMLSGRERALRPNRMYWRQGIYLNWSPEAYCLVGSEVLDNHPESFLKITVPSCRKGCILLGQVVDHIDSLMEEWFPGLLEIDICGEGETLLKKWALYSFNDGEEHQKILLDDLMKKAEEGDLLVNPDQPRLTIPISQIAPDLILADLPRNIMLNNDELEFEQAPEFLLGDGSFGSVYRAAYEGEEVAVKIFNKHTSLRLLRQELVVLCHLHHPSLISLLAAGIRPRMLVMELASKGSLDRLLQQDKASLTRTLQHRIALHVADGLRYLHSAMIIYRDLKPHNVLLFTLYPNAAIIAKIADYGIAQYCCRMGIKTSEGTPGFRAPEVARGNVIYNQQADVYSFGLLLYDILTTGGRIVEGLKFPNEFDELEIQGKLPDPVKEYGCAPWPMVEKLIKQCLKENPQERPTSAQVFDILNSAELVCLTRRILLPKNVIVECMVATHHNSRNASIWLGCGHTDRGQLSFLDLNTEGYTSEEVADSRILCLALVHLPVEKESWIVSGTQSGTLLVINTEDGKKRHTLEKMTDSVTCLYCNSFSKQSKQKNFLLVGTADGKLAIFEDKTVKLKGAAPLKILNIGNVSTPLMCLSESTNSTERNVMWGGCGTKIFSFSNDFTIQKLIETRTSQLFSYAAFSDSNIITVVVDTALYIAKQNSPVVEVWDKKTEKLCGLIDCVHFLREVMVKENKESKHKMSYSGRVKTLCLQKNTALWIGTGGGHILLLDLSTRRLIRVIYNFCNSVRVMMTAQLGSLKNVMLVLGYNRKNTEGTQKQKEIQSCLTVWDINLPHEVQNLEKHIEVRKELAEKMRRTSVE
UniProt Q13158: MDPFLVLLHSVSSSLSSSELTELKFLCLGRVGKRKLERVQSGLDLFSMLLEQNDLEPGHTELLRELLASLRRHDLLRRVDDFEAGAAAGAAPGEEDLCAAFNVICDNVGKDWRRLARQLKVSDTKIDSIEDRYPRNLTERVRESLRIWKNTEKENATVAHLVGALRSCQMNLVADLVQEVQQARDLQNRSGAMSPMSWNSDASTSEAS

Key:
[1] = molecular target: Flag-tagged A211V-LRRK2 (human) (UniProt Q5S007); test: ELISA; 15 ug clarified lysate of HEK293T co-expressing Flag-LRRK2 and V5-FADD bound to Flag-coated ELISA plates 2 h at 37 C; washed (50 mM Tris, 150 mM NaCl, 0.1% Tween-20); co-captured V5-FADD detected with anti-V5, normalised to captured LRRK2
[2] = molecular target: Flag-tagged G2019S-LRRK2 (human) (UniProt Q5S007); test: as above
[3] = molecular target: Flag-tagged I2020T-LRRK2 (human) (UniProt Q5S007); test: as above
[4] = molecular target: Flag-tagged K544E-LRRK2 (human) (UniProt Q5S007); test: as above
[5] = molecular target: Flag-tagged R1441C-LRRK2 (human) (UniProt Q5S007); test: as above
[6] = molecular target: Flag-tagged T1410M-LRRK2 (human) (UniProt Q5S007); test: as above
[7] = molecular target: Flag-tagged wild type LRRK2 (leucine-rich repeat kinase 2) (human) (UniProt Q5S007); test: as above
[8] = molecular target: Flag-tagged A211V-LRRK2 (human) (UniProt Q5S007); test: co-IP; HEK293T co-expressing Flag-LRRK2 and V5-FADD (4:1) for 72 h; 500 ug clarified lysate (IP lysis buffer: 20 mM HEPES, 150 mM NaCl, 0.1% NP-40, 2 mM EGTA, 2 mM MgCl2, 10% glycerol) incubated overnight with Flag-conjugated resin; eluate blotted for V5 and Flag
[9] = molecular target: Flag-tagged I2020T-LRRK2 (human) (UniProt Q5S007); test: as above
[10] = molecular target: Flag-tagged wild type LRRK2 (leucine-rich repeat kinase 2) (human) (UniProt Q5S007); test: as above

Measured: binding

Full length V5-tagged FADD (from UniProt Q13158 1-208)
binds: all assays above
